Source: PubChem BioAssay AID624147 (NCATS, 2012).

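Inhibition of the parasite's purified glycolytic enzyme pyruvate kinase, measured as a luminescence signal from ATP produced after a 45 minute reaction.
Each compound was tested as a concentration series from about 0.0037 to 57.5 µM.
The number is the fitted half-maximal inhibitory concentration (AC50); lower values mean more potent inhibition.
Calls follow curve class and fitted AC50; all compounds here are filed inconclusive, and nearly all show partial or poorly fitted inhibition curves.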

Values are in µM.
All entries here are filed as inconclusive.
Only part of the assay is shown, chiefly results filed as inconclusive.
A potency from a partial, single-point or poor curve is only a rough figure.
Some entries filed as inconclusive have a full curve.

| compound | potency (µM) | remark |
|---|---|---|
| `CC(C)(C)c1ccc(S(=O)(=O)/C=C/C#N)cc1` | 8.492 | inhibitor, partial curve, poor fit |
| `CC(C)(C)c1cc(C=C(C#N)C#N)cc(C(C)(C)C)c1O` | 19.01 | inhibitor, partial curve |
| `Oc1ccc2ccccc2c1SSc1c(O)ccc2ccccc12` | 19.01 | inhibitor, partial curve |
| `NC(=O)CI` | 30.13 | inhibitor, partial curve |
| `O=C1C(SCCO)=C(SCCO)C(=O)c2ccccc21` | 2.686 | inhibitor, full curve |
| `O=C(O)/C=C/c1ccc(O)c(O)c1` | 9.528 | inhibitor, partial curve |
| `CN1CCc2cccc3c2C1Cc1ccc(O)c(O)c1-3` (stereo not shown) | 21.33 | inhibitor, partial curve |
| `Cc1cc(O)c2c(c1)C(=O)c1cc(O)cc(O)c1C2=O` | 9.528 | inhibitor, partial curve |
| `Oc1ccc(Cn2cc[nH]c2=S)cc1` | 16.94 | inhibitor, partial curve |
| `Nc1c(S(=O)(=O)O)cc(Nc2ccc(Nc3nc(Cl)nc(Nc4ccc(S(=O)(=O)O)cc4)n3)c(S(=O)(=O)O)c2)c2c1C(=O)c1ccccc1C2=O` | 21.33 | inhibitor, partial curve |
| `CCCN1CCc2cccc3c2[C@H]1Cc1ccc(O)c(O)c1-3` | 6.746 | inhibitor, partial curve, poor fit |
| `C=CCN1CCc2cccc3c2[C@H]1Cc1ccc(O)c(O)c1-3` | 13.46 | inhibitor, partial curve |
| `COC(=O)C1=C(C)NC(C)=C(C(=O)OC)C1c1ccccc1[N+](=O)[O-]` | 13.46 | inhibitor, partial curve |
| `Cc1ccc(S(=O)(=O)/C=C/C#N)cc1` | 16.94 | inhibitor, partial curve |
| `O=[N+]([O-])/C=C/c1ccc2c(c1)OCO2` | 23.93 | inhibitor, partial curve |
| `CN1CCc2cc(O)cc3c2[C@H]1Cc1ccc(O)c(O)c1-3` | 21.33 | inhibitor, partial curve |
| `O=C(Nc1cccc(C(=O)Nc2ccc(S(=O)(=O)O)c3cc(S(=O)(=O)O)cc(S(=O)(=O)O)c23)c1)Nc1cccc(C(=O)Nc2ccc(S(=O)(=O)O)c3cc(S(=O)(=O)O)cc(S(=O)(=O)O)c23)c1` | 33.81 | inhibitor, partial curve |
| `C[C@](N)(Cc1ccc(O)c(O)c1)C(=O)O` | 13.46 | inhibitor, partial curve |
| `O=C(O)c1cc[c]([Hg][Cl])cc1` | 0.9528 | inhibitor, partial curve, poor fit |
| `Oc1cc2c(cc1O)CN(C(=S)NCCc1ccc(Cl)cc1)CCC2` | 13.46 | inhibitor, partial curve |
| `NC1CCc2cc(O)c(O)cc2C1` (stereo not shown) | 23.93 | inhibitor, partial curve |
| `N.N.O=C(O)C1(C(=O)O)CCC1.[Pt]` | 10.69 | inhibitor, partial curve |
| `C[Se]C[C@H](N)C(=O)O` | 15.1 | inhibitor, partial curve, poor fit |